Some peptides are written in HELM: one residue between dots, names in brackets for other building blocks, links after the first $.
Experiment: general procedure: Fmoc solid-phase peptide synthesis; 2-chlorotrityl resin (1.6 mmol g^-1 initial loading); HBTU/HOBt monohydrate/DIPEA; 2-bromo-1-ethyl-pyridinium tetrafluoroborate/DIPEA
Details: for cyclisation yield: cyclisation step; for step yield: late stage modification step

Substance | cyclisation yield | step yield | cyclisation yield (on linear precursor)
PEPTIDE1{V.[NMeGlu].I.W.[NMeLys].A.[Phe(3R-MeO)]}$PEPTIDE1,PEPTIDE1,1:R1-7:R2$$$V2.0 | 52% | 21% | –
PEPTIDE1{V.[NMeLeu].I.W.[NMe5Hnv].A.F}$PEPTIDE1,PEPTIDE1,1:R1-7:R2$$$V2.0 | 94% | 35% | –
PEPTIDE1{V.[NMeLeu].I.W.[NMeGlu(NHPr)].A.F}$PEPTIDE1,PEPTIDE1,1:R1-7:R2$$$V2.0 | – | 44% | –
PEPTIDE1{V.[NMeLeu].I.W.[NMeGlu].A.F}$PEPTIDE1,PEPTIDE1,1:R1-7:R2$$$V2.0 | 52% | 29% | –
PEPTIDE1{V.[NMeLeu].I.W.[NMeLys].A.F}$PEPTIDE1,PEPTIDE1,1:R1-7:R2$$$V2.0 | 75% | 41% | –
PEPTIDE1{V.[NMeLeu].I.W.[NMeLys].A.[Phe(3R-MeO)]}$PEPTIDE1,PEPTIDE1,1:R1-7:R2$$$V2.0 | 88% | 16% | –
PEPTIDE1{V.[NMeLeu].I.W.[NMeLys].[Glu(TOTA-(+)JQ1)].[Phe(3R-MeO)]}$PEPTIDE1,PEPTIDE1,1:R1-7:R2$$$V2.0 | – | 31% | 64%
PEPTIDE1{V.[NMeLeu].I.W.[NMeLys].[Glu(TOTA-Biotin)].[Phe(3R-MeO)]}$PEPTIDE1,PEPTIDE1,1:R1-7:R2$$$V2.0 | 63% | 9% | –
PEPTIDE1{V.[NMeLeu].I.W.[NMeOrn].A.F}$PEPTIDE1,PEPTIDE1,1:R1-7:R2$$$V2.0 | >98% | 28% | –
PEPTIDE1{V.[NMeLeu].I.[Trp(prenyl)].[NMeLys].A.F}$PEPTIDE1,PEPTIDE1,1:R1-7:R2$$$V2.0 | 78% | 11% | –
PEPTIDE1{V.[NMeLeu].I.[Trp(prenyl)].[NMeLys].A.[Phe(3R-MeO)]}$PEPTIDE1,PEPTIDE1,1:R1-7:R2$$$V2.0 | 65% | 12% | –
PEPTIDE1{V.[NMeLeu].[dehydro-isonorleucine].[Trp(prenyl)].[NMeLys].A.[Phe(3R-MeO)]}$PEPTIDE1,PEPTIDE1,1:R1-7:R2$$$V2.0 | 81% | 12% | –

From patent EP4089103A1 (priority 2021, dated 2022)
